Earlier results as cited in US20190374552A1, “MULTIFUNCTIONAL FORMULATIONS AND METHODS TO CONTROL DERMATITIS AND PRURITUS” (priority 2016, published 2019).
For at least one compound, name, drawing or mass did not settle the structure.

Chains of the proteins cited; added tags and fusions are not shown.
UniProt O35433, whole entry: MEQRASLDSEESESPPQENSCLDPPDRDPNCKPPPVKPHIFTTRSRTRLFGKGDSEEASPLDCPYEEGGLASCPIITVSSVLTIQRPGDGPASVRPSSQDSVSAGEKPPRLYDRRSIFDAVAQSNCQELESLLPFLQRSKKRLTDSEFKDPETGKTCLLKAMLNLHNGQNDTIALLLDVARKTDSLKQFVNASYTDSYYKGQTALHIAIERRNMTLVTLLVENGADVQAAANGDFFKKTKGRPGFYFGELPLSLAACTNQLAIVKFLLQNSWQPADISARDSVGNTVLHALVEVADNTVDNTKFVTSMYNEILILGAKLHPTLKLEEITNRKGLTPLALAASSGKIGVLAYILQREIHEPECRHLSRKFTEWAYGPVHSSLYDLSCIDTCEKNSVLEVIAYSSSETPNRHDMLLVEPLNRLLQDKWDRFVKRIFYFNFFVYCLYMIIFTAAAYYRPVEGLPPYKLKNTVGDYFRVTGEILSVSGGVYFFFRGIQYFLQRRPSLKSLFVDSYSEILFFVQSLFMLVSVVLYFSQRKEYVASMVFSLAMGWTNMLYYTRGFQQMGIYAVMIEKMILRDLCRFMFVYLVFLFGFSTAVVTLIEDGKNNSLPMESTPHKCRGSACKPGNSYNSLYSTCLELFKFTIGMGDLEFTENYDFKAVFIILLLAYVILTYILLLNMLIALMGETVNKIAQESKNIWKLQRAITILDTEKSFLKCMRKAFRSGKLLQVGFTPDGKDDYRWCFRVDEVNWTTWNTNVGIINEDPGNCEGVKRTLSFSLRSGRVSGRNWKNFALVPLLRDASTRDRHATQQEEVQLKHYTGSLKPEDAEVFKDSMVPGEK

Columns and labels:
[1] = system: capsaicin-evoked pain-related behavior; conditions: mice
TRPV1 = TRPV1 (Rattus norvegicus, UniProt O35433); conditions: compared with docosahexaenoic acid

| Compound | capsaicin-evoked pain-related behavior [1] | TRPV1 inhibition (TRPV1) |
| --- | --- | --- |
| CC/C=C\C/C=C\C/C=C\C/C=C\C/C=C\C/C=C\CCC(=O)O [docosahexaenoic acid] | not | – |
| CC/C=C\C/C=C\C/C=C\C/C=C\C/C=C\CCCC(=O)O [eicosapentaenoic acid] | profoundly reduced | markedly more effective inhibitors |
